According to PMC9226075:
No constants are given. Whether binding was seen depends on the method and setting. Binding seen in cells or lysates may run through a third protein. These calls come from enrichment with a bait or labelling near it, and not all partners need be listed.

By UniProt entry, the sequences of proteins in these tests, tags left out.
UniProt Q91ZW3: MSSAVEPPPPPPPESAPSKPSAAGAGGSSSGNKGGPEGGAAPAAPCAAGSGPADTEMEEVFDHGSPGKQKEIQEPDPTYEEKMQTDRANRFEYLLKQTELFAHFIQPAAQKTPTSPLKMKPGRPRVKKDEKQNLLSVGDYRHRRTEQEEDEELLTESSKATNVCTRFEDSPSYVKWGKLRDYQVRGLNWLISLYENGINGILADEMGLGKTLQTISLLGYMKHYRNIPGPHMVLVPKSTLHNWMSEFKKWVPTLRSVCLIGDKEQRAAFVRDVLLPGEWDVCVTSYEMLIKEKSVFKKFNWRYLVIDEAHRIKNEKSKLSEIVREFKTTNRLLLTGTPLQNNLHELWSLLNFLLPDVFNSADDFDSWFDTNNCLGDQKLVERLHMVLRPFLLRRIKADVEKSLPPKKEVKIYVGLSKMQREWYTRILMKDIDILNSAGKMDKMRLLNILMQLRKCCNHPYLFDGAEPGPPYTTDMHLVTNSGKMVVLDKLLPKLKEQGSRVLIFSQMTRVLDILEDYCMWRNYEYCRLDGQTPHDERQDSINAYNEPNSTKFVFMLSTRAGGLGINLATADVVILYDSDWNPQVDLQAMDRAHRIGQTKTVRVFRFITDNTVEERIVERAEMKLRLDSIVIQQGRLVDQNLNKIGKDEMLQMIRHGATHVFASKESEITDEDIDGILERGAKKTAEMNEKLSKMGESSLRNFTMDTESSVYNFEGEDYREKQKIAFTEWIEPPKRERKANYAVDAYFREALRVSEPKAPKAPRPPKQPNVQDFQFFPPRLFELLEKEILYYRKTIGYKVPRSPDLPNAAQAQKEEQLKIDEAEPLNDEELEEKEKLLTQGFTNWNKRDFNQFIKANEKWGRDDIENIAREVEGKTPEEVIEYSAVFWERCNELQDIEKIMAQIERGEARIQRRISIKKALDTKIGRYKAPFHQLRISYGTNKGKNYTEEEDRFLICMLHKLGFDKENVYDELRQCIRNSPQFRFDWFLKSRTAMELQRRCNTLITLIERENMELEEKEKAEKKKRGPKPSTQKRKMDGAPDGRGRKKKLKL
UniProt Q91Z31: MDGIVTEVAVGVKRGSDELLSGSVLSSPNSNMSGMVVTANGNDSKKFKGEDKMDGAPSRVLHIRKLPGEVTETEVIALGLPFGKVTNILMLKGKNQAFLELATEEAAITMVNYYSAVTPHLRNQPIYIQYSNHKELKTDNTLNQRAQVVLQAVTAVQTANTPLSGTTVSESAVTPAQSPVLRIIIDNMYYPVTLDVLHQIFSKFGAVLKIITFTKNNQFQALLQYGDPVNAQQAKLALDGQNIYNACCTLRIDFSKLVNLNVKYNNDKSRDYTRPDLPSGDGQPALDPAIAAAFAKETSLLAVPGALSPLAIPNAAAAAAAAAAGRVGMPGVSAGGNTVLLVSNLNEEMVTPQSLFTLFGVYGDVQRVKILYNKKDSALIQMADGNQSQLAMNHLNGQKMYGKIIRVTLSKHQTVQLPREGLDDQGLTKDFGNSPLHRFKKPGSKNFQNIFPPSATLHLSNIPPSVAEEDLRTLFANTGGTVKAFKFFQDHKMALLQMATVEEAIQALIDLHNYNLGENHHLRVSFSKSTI

T1: hnRNPH1 (mouse (endogenous in testis and ovary)) (UniProt O35737)
T1 sequence: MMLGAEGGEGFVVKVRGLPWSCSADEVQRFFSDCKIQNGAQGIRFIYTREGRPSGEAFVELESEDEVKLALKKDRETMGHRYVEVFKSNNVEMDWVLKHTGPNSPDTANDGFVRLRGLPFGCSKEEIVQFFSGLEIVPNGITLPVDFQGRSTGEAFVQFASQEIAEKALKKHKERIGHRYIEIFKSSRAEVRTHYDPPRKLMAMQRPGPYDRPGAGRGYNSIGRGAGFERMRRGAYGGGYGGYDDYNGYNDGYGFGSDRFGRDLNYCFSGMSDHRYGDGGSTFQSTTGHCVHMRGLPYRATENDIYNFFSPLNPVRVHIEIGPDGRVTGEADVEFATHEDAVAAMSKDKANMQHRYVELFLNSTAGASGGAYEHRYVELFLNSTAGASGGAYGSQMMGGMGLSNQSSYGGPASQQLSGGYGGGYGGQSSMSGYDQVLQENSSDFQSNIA

B1: SRSF3 (protein, UniProt P84104 1-164)
chain: MHRDSCPLDCKVYVGNLGNNGNKTELERAFGYYGPLRSVWVARNPPGFAFVEFEDPRDAADAVRELDGRTLCGCRVRVELSNGEKRSRNRGPPPSWGRRPRDDYRRRSPPPRRRSPRRRSFSRSRSRSLSRDRRRERSLSRERNHKPSRSFSRSRSRSRSNERK
B2: Cirbp (protein, UniProt P60824 1-172)
chain: MASDEGKLFVGGLSFDTNEQALEQVFSKYGQISEVVVVKDRETQRSRGFGFVTFENIDDAKDAMMAMNGKSVDGRQIRVDQAGKSSDNRSRGYRGGSAGGRGFFRGGRSRGRGFSRGGGDRGYGGGRFESRSGGYGGSRDYYASRSQGGSYGYRSSGGSYRDSYDSYATHNE

Target: T1, hnRNPH1 (mouse (endogenous in testis and ovary))
Experiment: affinity purification with mass spectrometry; IP-MS with the hnRNPH1 antibody from wild-type adult mouse testes

binding, binds:
Smarca5 (from UniProt Q91ZW3 1-1051)
PTBP2 (from UniProt Q91Z31 1-531)
B1
B2
